Data from paper PMC9547917.
No constants are given. Whether binding was seen depends on the method and setting. For part of these data: In cells and extracts the contact can be indirect. Some binding calls cover weakened binding; strength is not graded here. For part of these data: Where a sequence is shown, tags or fusion partners need not be part of it.

T1: FAK (1–400)-HA (human) (UniProt Q05397)
T1 sequence: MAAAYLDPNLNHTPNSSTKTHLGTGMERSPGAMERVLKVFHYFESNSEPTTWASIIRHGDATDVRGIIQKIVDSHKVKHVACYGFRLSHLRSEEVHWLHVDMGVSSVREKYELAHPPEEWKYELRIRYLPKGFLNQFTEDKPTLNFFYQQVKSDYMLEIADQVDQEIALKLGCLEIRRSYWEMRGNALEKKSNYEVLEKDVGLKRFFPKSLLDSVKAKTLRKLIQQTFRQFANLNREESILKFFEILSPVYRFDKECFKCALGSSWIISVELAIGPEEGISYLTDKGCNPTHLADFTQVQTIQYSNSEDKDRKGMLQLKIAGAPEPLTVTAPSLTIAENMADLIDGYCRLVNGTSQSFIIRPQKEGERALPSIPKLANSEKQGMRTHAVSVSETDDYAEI

T2: FAK (401–693)-HA (human) (UniProt Q05397)
T2 sequence: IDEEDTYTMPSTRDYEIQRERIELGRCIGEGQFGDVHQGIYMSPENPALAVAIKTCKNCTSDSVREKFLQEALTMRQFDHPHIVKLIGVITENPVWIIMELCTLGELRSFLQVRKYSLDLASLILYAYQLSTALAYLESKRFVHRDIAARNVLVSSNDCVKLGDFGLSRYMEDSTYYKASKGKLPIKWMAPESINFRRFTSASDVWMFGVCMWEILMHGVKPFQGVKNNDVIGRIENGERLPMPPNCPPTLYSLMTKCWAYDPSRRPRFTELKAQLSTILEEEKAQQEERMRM


Columns and labels:
FAK (1–400)-HA (human) = target: T1, FAK (1–400)-HA (human); experiment: co-IP; L02 cells transfected with Flag-tagged DUSP22 and HA-tagged FAK (full length or truncated); IP lysis buffer, Protein A/G magnetic agarose beads, antibodies at 4 °C overnight; immunoblot with anti-Flag and anti-HA
FAK (401–693)-HA (human) = target: T2, FAK (401–693)-HA (human); experiment: as above
[1] = target: HA-tagged FAK (focal adhesion kinase), full length (human) (UniProt Q05397); experiment: as above
GST-FAK = GST-FAK (UniProt Q05397); experiment: pull-down; GST-DUSP22 or GST-FAK from E. coli extracts on GST beads (4 °C, 1 h), then incubated 4 h with Flag-tagged FAK or Flag-tagged DUSP22 prepared by IP; eluate blotted with anti-Flag; GST alone as control; both purified
[2] = target: FAK, endogenous in mouse liver (mouse (endogenous in liver)) (UniProt P34152); experiment: co-IP; liver tissue of WT mice after a 24-week HFHC; endogenous proteins; IgG as control

binding (FAK (1–400)-HA (human)) | binding (FAK (401–693)-HA (human)) | binding [1] | binding (GST-FAK) | binding [2] | Binder
binds | binds | binds | binds |  | Flag-tagged DUSP22 (dual specificity phosphatase 22), full length (protein, UniProt Q9NRW4 1-184) MGNGMNKILPGLYIGNFKDARDAEQLSKNKVTHILSVHDSARPMLEGVKYLCIPAADSPSQNLTRHFKESIKFIHECRLRGESCLVHCLAGVSRSVTLVIAYIMTVTDFGWEDALHTVRAGRSCANPNVGFQRQLQEFEKHEVHQYRQWLKEEYGESPLQDAEEAKNILAAPGILKFWAFLRRL
 |  |  |  | binds | DUSP22, endogenous in mouse liver (protein, UniProt Q99N11 1-184) MGSGMSQILPGLYIGNFKDARDAEQLSRNKVTHILSVHDTARPMLEGVKYLCIPAADTPSQNLTRHFKESIKFIHECRLQGESCLVHCLAGVSRSVTLVIAYIMTVTDFGWEDALHTVRAGRSCANPNLGFQRQLQEFEKHEVHQYRQWLREEYGENPLRDAEEAKNILAAPGILKYWAFLRRL
 |  | binds |  |  | DUSP22 (1–144)-Flag (domain or fragment, UniProt Q9NRW4 1-144) MGNGMNKILPGLYIGNFKDARDAEQLSKNKVTHILSVHDSARPMLEGVKYLCIPAADSPSQNLTRHFKESIKFIHECRLRGESCLVHCLAGVSRSVTLVIAYIMTVTDFGWEDALHTVRAGRSCANPNVGFQRQLQEFEKHEVH
